Test results as given in patent US8574551B2, “Compositions useful for reducing nephrotoxicity and methods of use thereof” (Verrow Pharmaceuticals, Inc., priority 2005, dated 2013).

Assay: MTX-captisol solubility: rate of precipitation of MTX at pH 5.0 in presence and absence of captisol
Format: physicochemical
Details: pH 5.0, MTX added 0.91 mg/ml
Experimental: Solubility studies were performed to determine whether Captisol could prevent the precipitation of MTX over a time period greater than transit time of MTX through the kidney (i.e., less than 2 minutes). Each solution was acidified with HCl, centrifuged and aliquots of the supernatant removed as a function of time, and the concentration of MTX in solution was measured spectrophometrically.

CN(Cc1cnc2nc(N)nc(N)c2n1)c1ccc(C(=O)N[C@@H](CCC(=O)O)C(=O)O)cc1 [MTX, N-[4-[[(2,4-diamino-6pteridinyl)methyl]methylamino]benzoyl]-L-glutamicacid]
OD at 302-304 nm (5 min after adding acid): 0.296
OD at 302-304 nm (10 min after adding acid): 0.22
OD at 302-304 nm (15 min after adding acid): 0.274
OD at 302-304 nm (20 min after adding acid): 0.328
OD at 302-304 nm (30 min after adding acid): 0.325
OD at 302-304 nm (40 min after adding acid): 0.284
OD at 302-304 nm (50 min after adding acid): 0.293
OD at 302-304 nm (60 min after adding acid): 0.333
